Measured values reported in publication doi:10.1101/2024.09.18.613669.

How the values were obtained:
Experiment in all cases: EMSA
ETV5 = ETV5 60-240 nM, probe 5 nM
ETV1 + FUS + MEF2A = settings: FUS 300 nM, MEF2A 50 nM, ETV1 120 nM, similar to ETV5
ETV5 + FUS + MEF2A = settings: FUS 300 nM, MEF2A 50 nM, ETV5 60-240 nM, FUS and MEF2A increase ETV5 binding

Measured: binding result

TTTTAACGGCGTGGTTTGAATGTTGCACTGGGTCCACCTGCCTCTGTCTCCGGCTGCGGGGACGTTCGGA (double strand) [MRPL30 probe WT]
binds: all assays above

For at least one entry, the source does not settle the construct or the ends of the probe. For part of these data: At least one verdict rests on a figure or table, not on a statement of the authors.
